1 substance from article PMC4777826, “Crystal Structure of the CTP1L Endolysin Reveals How Its Activity Is Regulated by a Secondary Translation Product*^([image sbox.jpg])” (The Journal of Biological Chemistry, 2015) can be followed below.

These are yes or no findings as the source states them, for the method shown. A result given as binding can be weak or reduced; the word gives no strength.

This assay concerns the target T1, CD27L endolysin, full-length (wild type) (bacteriophage (targets Clostridium difficile)) (UniProt B6SBV8).
T1 sequence: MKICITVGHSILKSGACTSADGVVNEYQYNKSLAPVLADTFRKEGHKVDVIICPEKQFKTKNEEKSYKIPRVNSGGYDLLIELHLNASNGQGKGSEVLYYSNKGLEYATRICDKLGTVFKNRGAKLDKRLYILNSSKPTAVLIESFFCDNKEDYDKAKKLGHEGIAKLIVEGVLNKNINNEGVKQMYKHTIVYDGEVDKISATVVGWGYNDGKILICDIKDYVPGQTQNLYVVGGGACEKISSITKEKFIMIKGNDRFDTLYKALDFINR
As to the kind of experiment: native MS; nano-ESI of each purified sample by itself (wild-type gene products, CBDHis, RBSKO mutants), 150 mM ammonium acetate pH 7.4; both purified.

For the substance “truncated C-terminal domain (CBD) of CD27L (domain or fragment)”, the binding result is “binds”.
